Measurements: the supplement of paper PMC5949888
Most values lie at the floor of the assay. Slopes are relative: functional sequences can read slightly below zero.

These substances were tested on Saccharomyces cerevisiae PS128 hsf1 delta, HSF1(1-493) fusion (assay: growth estimate (transactivation domain function in HSF1 fusion, heat-shock survival) (a.u. (slope of normalised read count over time)); higher = stronger growth at 37°C, i.e. more transactivation activity). Settings: library: random library.
Protocol: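 Random 60-nt DNA library encoding peptides of up to 20 aa, fused to the C-terminus of yeast HSF1 residues 1-493 (C-terminal TAD deleted) and expressed from the native HSF1 promoter on a CEN plasmid in hsf1-deleted S. cerevisiae PS128. Cells were selected at 37°C on -trp 5-FOA plates for 0, 2, 4, 6 and 8 days and amplicons were sequenced. Growth estimate is the slope of a robust linear fit of total-sum-normalised read counts (normalised to the first time point) over time, using at least 2 replicates. Sequences are classed functional (TAD activity) above a threshold of -0.13, set from stop-codon control sequences.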

Row | Substance | growth estimate
1 | GNEHEGKCGSDTVDEPSTLS | < -0.25
2 | GNFRRLECH | < -0.25
3 | GNGIRERATTRLVRECQKDI | < -0.25
4 | GNGLLRRNTSSYVAWVVTLG | < -0.25
5 | GNI | < -0.25
6 | GNIHKVLGV | < -0.25
7 | GNLLKFISLIVAHR | < -0.25
8 | GNLLSAPGMRDSTPKTSTRN | < -0.25
9 | GNMG | < -0.25
10 | GNPPTLFDERRQRRLRAIAR | < -0.25
11 | GNPSAVDKRGFEAPLFVRIG | < -0.25
12 | GNQGVCLCFVRRGSYVFPRS | < -0.25
13 | GNQHTGFSR | < -0.25
14 | GNRDSYVRLNIYPRGFEVIR | < -0.25
15 | GNSGMQGVARIARSML | < -0.25
16 | GNSMFVLWYLAASPFS | < -0.25
17 | GNTAIIRTSIAECCWHMRNG | < -0.25
18 | GNTKGREGSQRK | < -0.25
19 | GNVLL | < -0.25
20 | GPA | < -0.25
21 | GPAESLDQLHAMKIQRVSAS | < -0.25
22 | GPAPRDMHLRYHRRLQGRYG | < -0.25
23 | GPASR | < -0.25
24 | GPAWCFDKEGPVCTGSSVVK | < -0.25

Given as comma-separated lines: entries from further up.
Row,Substance,growth estimate
16,GNSMFVLWYLAASPFS,< -0.25
17,GNTAIIRTSIAECCWHMRNG,< -0.25
18,GNTKGREGSQRK,< -0.25
19,GNVLL,< -0.25
20,GPA,< -0.25
21,GPAESLDQLHAMKIQRVSAS,< -0.25

Remaining list, next part.

Row | Substance | growth estimate
25 | GPCVPPIMARLLLEGRGTPL | < -0.25
26 | GPDVV | < -0.25
27 | GPEHDYCISPDI | < -0.25
28 | GPERSTGNAKSRTH | < -0.25
29 | GPFCCRHRNRYIMSPIWTAP | < -0.25
30 | GPGCDL | < -0.25
31 | GPGCLMERCELEY | < -0.25
32 | GPGH | < -0.25
33 | GPGKDFRLNMLRTCR | < -0.25
34 | GPGLGTRRSTSCPSSTILCS | < -0.25
35 | GPGNHLGLPPFRGRGSRDAQ | < -0.25
36 | GPGQFINGK | < -0.25
37 | GPGQYPTF | < -0.25
38 | GPGRG | < -0.25
39 | GPGSARNRCGRIQKGR | < -0.25
40 | GPGVPTWDLVSRVDSGNGGR | < -0.25
41 | GPGVQGPGSAL | -0.172
42 | GPHMRLGSPMSREFMNFSQP | < -0.25
43 | GPHTLKLPRYFMSELRKFLP | < -0.25
44 | GPICLICTKNPWYALGTGKR | -0.246
45 | GPIRPNVEGAEYYCHEVPLG | < -0.25
46 | GPKYKVWLYMGKAGSVSNEA | < -0.25
47 | GPLHFYTEERR | < -0.25
48 | GPLVGQDNEETISAEHSLRV | < -0.25

Row | Substance | growth estimate
49 | GPNRPHAW | < -0.25
50 | GPPRSFGWYRWYKRNLGLMS | < -0.25
51 | GPQFIVAYGRSPGQKPHTEA | < -0.25
52 | GPRERAGIVASIFMVRW | -0.231
53 | GPRGVSVYWNVMVANVRRAG | < -0.25
54 | GPRKSLAVLSRDLDYNKLAG | < -0.25
55 | GPRRGHVCVLSCCHLCPDLY | < -0.25
56 | GPSHVLSVSMGSRACGQAIL | < -0.25
57 | GPSNSAYPLRGC | < -0.25
58 | GPSSTPPAEARVMTH | < -0.25
59 | GPSVGNSRGRVTHDDRSSML | < -0.25
60 | GPTCIQSSFSWGRRPRTCTV | < -0.25
61 | GPTDQRVTCRESSSSGYLAR | < -0.25
62 | GPTVNEWDSVNVCRLRARGS | < -0.25
63 | GPV | < -0.25
64 | GPVGVIGVILDTAASS | -0.237
65 | GPVSLENWVRRCDAIS | < -0.25
66 | GPWWKVGQTCEGRTI | < -0.25
67 | GPY | < -0.25
68 | GPYLSTWKLHPRLCLASL | < -0.25
69 | GQDHIHWFRSQSGGTSHEQS | < -0.25
70 | GQDVSRRLTVL | < -0.25
71 | GQEGRAYSKVVLRLAERTPM | < -0.25
72 | GQENQGQGHLVQSCIYPGQS | < -0.25

Row | Substance | growth estimate
73 | GQFWG | < -0.25
74 | GQGAEE | < -0.25
75 | GQGICAEYFLGGAERLMPFY | < -0.25
76 | GQGTG | < -0.25
77 | GQIAAGGIGSARRSEK | -0.245
78 | GQIL | < -0.25
79 | GQISQRRYRFSGRSLRHSDY | < -0.25
80 | GQITFKAGRSESCRGCDDMG | < -0.25
81 | GQKIGISHIKPY | < -0.25
82 | GQKTQTIVWRGQVVVAHDEL | < -0.25
83 | GQLGDYGLLAEYGIHE | < -0.25
84 | GQLNSLYGLSTLLSTRFGAI | < -0.25
85 | GQMSDL | < -0.25
86 | GQND | < -0.25
87 | GQPFGVRALSRADAVR | < -0.25
88 | GQPL | < -0.25
89 | GQPVSDTVVWDWGFTAQEEP | 0.283
90 | GQRAPA | < -0.25
91 | GQRIDQRVLAPKAFDAGHSL | < -0.25
92 | GQRQVLPYRY | < -0.25
93 | GQRVNASMNVCRTASRHLLS | < -0.25
94 | GQSAFSYPFSIPQLGCCT | < -0.25
95 | GQSCPARPSPVIEF | < -0.25
